PubChem BioAssay AID743121 – NCATS, 2013
In all, the deposit lists about 26,000 reagents; shown is a part drawn at random. Over the whole deposit, 167 (0.63%) got an active call. 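Calls are per gene from RSA p-values that are not deposited; an individual active-marked siRNA can sensitise only weakly.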 A number with no mark means an inactive call. Reagents against one gene are numbered here. Not all columns of the deposit are shown. Reagent sequences are not shown.

Test: 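Partners whose loss is lethal together with topoisomerase I blockade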 (primary screen)
Cell system: MDA-MB-231 cells, a human breast cancer line
Reagent: single siRNA against human genes, 20 nM siRNA (0.8 pmol per well)
Time to read-out: 120 h (drug added 48 h after transfection, read 72 h later)
Challenge: camptothecin 20 nM (about EC30) for 72 h; vehicle 0.1% DMSO in parallel plates
Measured: 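CellTiter-Glo ATP signal, scaled to control siRNA as percent viability; sensitisation given as log2 of untreated divided by camptothecin-treated viability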
Scale: log2 vehicle/camptothecin viability: higher = stronger sensitisation to camptothecin
Rule for the call: 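Each gene scored by redundant siRNA activity (RSA) over its individual siRNA ratios; a gene is called active at p < 0.001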

gene symbol,siRNA no.,log2 vehicle/camptothecin viability
WDR5,1,-0.314
WDR5,2,-0.557
WDR5,3,-0.0344
WDR5,4,-0.498
CPT1A,1,-0.0946
CPT1A,2,-0.039
CPT1A,3,-0.12
CPT1A,4,-0.0732
YWHAB,1,-0.315
YWHAB,2,-0.197
YWHAB,3,-0.0837
YWHAB,4,-0.331
RAB33A,1,-0.196
RAB33A,2,-0.187
RAB33A,3,-0.286
PA2G4,1,-0.528
PA2G4,2,0.191
PA2G4,3,-0.245
SLIT3,1,-0.469
SLIT3,2,-0.319
SLIT3,3,-0.148
SLIT3,4,-0.047
NUDCD1,1,-0.309
NUDCD1,2,-0.0269
NUDCD1,3,0.0524
NUDCD1,4,0.0521
PRPS1L1,1,-0.581
PRPS1L1,2,-0.124
PRPS1L1,3,-0.507
PRPS1L1,4,-0.516

Reformatted: 2 of the entries above
gene symbol	siRNA no.	log2 vehicle/camptothecin viability
YWHAB	2	-0.197
YWHAB	3	-0.0837
